In publication PMC10390580:
Results are given in words; binding and its absence hold for the method and conditions named. In cells and extracts the contact can be indirect. Some entries that bind do so weakly or less than the wild type.

Protein sequences, listed by entry. Tags and fused reporters are not part of them.
UniProt P03372: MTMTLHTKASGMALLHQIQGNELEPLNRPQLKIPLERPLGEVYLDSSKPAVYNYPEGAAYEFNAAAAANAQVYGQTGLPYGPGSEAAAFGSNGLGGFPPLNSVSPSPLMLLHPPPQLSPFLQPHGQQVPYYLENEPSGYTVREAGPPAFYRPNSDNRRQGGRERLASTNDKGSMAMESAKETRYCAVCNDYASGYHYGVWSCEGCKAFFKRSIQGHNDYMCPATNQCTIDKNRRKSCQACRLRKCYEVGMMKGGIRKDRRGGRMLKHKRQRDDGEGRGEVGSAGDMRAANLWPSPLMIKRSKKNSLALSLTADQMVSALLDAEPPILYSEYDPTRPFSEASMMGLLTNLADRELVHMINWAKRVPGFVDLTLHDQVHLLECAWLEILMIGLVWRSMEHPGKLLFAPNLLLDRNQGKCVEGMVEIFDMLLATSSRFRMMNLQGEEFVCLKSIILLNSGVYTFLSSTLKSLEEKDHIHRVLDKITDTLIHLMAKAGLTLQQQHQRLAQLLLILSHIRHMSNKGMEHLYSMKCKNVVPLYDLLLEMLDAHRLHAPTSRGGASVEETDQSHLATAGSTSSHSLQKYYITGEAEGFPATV

Experiments:
[1] = target: T1, RNF181 (UniProt Q9P0P0); experiment: co-IP; immunoprecipitation analysis of RNF181 with ERα and mapping to its AF1 domain (Fig. S4A); cell lysate, Protein A/G agarose beads, washed with NP-40 lysis buffer, Western blotting; cells and antibodies not told
T1 sequence: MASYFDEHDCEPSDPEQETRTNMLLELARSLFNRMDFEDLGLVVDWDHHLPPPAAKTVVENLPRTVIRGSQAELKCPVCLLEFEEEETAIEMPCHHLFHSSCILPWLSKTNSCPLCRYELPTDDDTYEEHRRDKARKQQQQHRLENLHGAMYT

[2] = target: T1, RNF181; experiment: co-IP; two different immunoprecipitation assays, cells with or without circRNA-SFMBT2 overexpression (Fig. 7L); cell lysate, Protein A/G agarose beads, Western blotting; cells and antibodies not told

Q: What does the source list for “Estrogen receptor alpha (ERα) (from UniProt P03372 1-595)”?
A: binding [1]: binds; binding [2]: binds
